According to PubChem BioAssay AID248 (DTP/NCI, 2004):
The list is a part of this screen's results and no random one: it is rich in T/C values a quarter to a half above the control, in often repeated tests (any T/C) and in doses without a T/C. Other doses and runs of a compound stand elsewhere. T/C gives the treated animals as a percentage of the vehicle group. Some doses have a count of surviving animals in place of a T/C: the source holds a T/C of zero for them, seemingly a mark for toxic or unscored doses. Some survivor counts are full or nearly so, which does not show that the dose was tolerated: the source hardly ever lists a survival T/C far under the control, and the zero likely stands for such cases as well. Survivors were counted at the toxicity check, usually on the fifth day, unless a day is given; later deaths do not show. Schedule codes are those of the source, taken here to give the interval after Q, in days (D) or hours (H), and the number of doses after X. Some schedules carry Z or #; the key to these is not given. Some entries were tested several times; the results are listed from low to high. Where survival is the endpoint, the PubChem record calls one and a half times the control and up active, and a quarter to a half above the control has no call in these data; cut-offs in other NCI protocols can differ. Some T/C values carry the count of animals alive at the toxicity check (mostly the fifth day); without a count, all were alive then.

Test system: L1210 leukemia ip in BDF1 mice, survival T/C
Assay: NCI In Vivo Anticancer Drug Screen. Data for tumor model L1210 Leukemia (intraperitoneal) in B6D2F1 (BDF1) mice
Conditions: higher T/C = longer survival
[1] = T/C endpoint: mean survival time, dose: 135.0 mg/kg/injection, schedule: Q01DX Z (ip), vehicle: saline

For `CCCCCCCCC(=O)N1CCOCC1`, the survivor count (T/C endpoint: mean survival time, dose: 75.0 mg/kg/injection, schedule: Q01DX009 (ip), vehicle: saline) was 0 of 6, the survivor count (T/C endpoint: mean survival time, dose: 100.0 mg/kg/injection, schedule: Q01DX009 (ip), vehicle: Klucel (hydroxypropylcellulose) (HPC)) was 0 of 6 and 2 of 6 and the survivor count (T/C endpoint: mean survival time, dose: 100.0 mg/kg/injection, schedule: Q04DX003 (ip), vehicle: Klucel (hydroxypropylcellulose) (HPC)) was 3 of 6. The survivor count (T/C endpoint: mean survival time, dose: 150.0 mg/kg/injection, schedule: Q01DX009 (ip), vehicle: saline) was 0 of 6, the survivor count (T/C endpoint: mean survival time, dose: 200.0 mg/kg/injection, schedule: Q01DX009 (ip), vehicle: Klucel (hydroxypropylcellulose) (HPC)) was 0 of 6 and the survivor count (T/C endpoint: mean survival time, dose: 400.0 mg/kg/injection, schedule: Q01DX009 (ip), vehicle: Klucel (hydroxypropylcellulose) (HPC)) was 0 of 6.

With `Clc1ccc(-c2cc[s+]s2)cc1` the survivor count (T/C endpoint: mean survival time, dose: 25.0 mg/kg/injection, schedule: Q01DX009 (ip), vehicle: water) was 6 of 6, the survivor count (T/C endpoint: mean survival time, dose: 100.0 mg/kg/injection, schedule: Q01DX009 (ip), vehicle: water) was 1 of 6 and the survivor count (T/C endpoint: mean survival time, dose: 200.0 mg/kg/injection, schedule: Q04DX003 (ip), vehicle: water) was 2 of 6. For the same compound, the survivor count (T/C endpoint: mean survival time, dose: 400.0 mg/kg/injection, schedule: Q04DX003 (ip), vehicle: water) was 1 of 6.

In the case of `CN(N=O)C(=O)NC(C=O)C(O)C(O)C(O)CO` (centres undefined), the T/C (T/C endpoint: mean survival time, dose: 9.0 mg/kg/injection, schedule: Q#A X025 (ip), vehicle: water) is reported as 125 % of control, the T/C (T/C endpoint: mean survival time, dose: 13.5 mg/kg/injection, schedule: Q#A X025 (ip), vehicle: water) is reported as 130 % of control and the T/C (T/C endpoint: mean survival time, dose: 20.0 mg/kg/injection, schedule: Q#A X Z (ip), vehicle: saline) is reported as 140 and 146 % of control. The T/C (T/C endpoint: mean survival time, dose: 25.0 mg/kg/injection, schedule: Q01DX Z (ip), vehicle: saline) was 103, 107, 117, 125 % of control, the T/C (T/C endpoint: mean survival time, dose: 25.0 mg/kg/injection, schedule: Q01DX Z (ip), vehicle: water) was 128 % of control and the T/C (T/C endpoint: mean survival time, dose: 27.0 mg/kg/injection, schedule: Q01DX013 (ip), vehicle: water) was 136 % of control. The T/C (T/C endpoint: mean survival time, dose: 40.0 mg/kg/injection, schedule: Q01DX013 (ip), vehicle: water) was 141 % of control, the T/C (T/C endpoint: mean survival time, dose: 40.0 mg/kg/injection, schedule: Q01DX Z (ip), vehicle: saline) was 135 and 147 % of control and the survivor count (T/C endpoint: mean survival time, dose: 45.0 mg/kg/injection, schedule: Q#A X Z (ip), vehicle: saline) was 0 of 6. For the same compound, the T/C (T/C endpoint: mean survival time, dose: 49.5 mg/kg/injection, schedule: Q01DX Z (ip), vehicle: water) was 132 % of control, the T/C (T/C endpoint: mean survival time, dose: 49.6 mg/kg/injection, schedule: Q01DX Z (ip), vehicle: water) was 144 % of control [6 of 7 alive] and the T/C (T/C endpoint: mean survival time, dose: 50.0 mg/kg/injection, schedule: Q01DX Z (ip), vehicle: saline) was 94, 115, 142, 152 % of control. The T/C (T/C endpoint: mean survival time, dose: 50.0 mg/kg/injection, schedule: Q01DX Z (ip), vehicle: water) was 147 % of control, the T/C (T/C endpoint: mean survival time, dose: 54.0 mg/kg/injection, schedule: Q03DX003 (ip), vehicle: saline) was 125 % of control and the T/C (T/C endpoint: mean survival time, dose: 54.0 mg/kg/injection, schedule: Q07DX001 (ip), vehicle: saline) was 125 % of control. For the same compound, the T/C (T/C endpoint: mean survival time, dose: 60.0 mg/kg/injection, schedule: Q01DX Z (ip), vehicle: saline) was 138 and 148 % of control, the T/C (T/C endpoint: mean survival time, dose: 60.0 mg/kg/injection, schedule: Q01DX Z (sc), vehicle: saline) was 105, 111, 113, 120 % of control and the survivor count (T/C endpoint: mean survival time, dose: 67.5 mg/kg/injection, schedule: Q#A X Z (ip), vehicle: saline) was 0 of 6. The T/C (T/C endpoint: mean survival time, dose: 78.0 mg/kg/injection, schedule: Q03DX Z (ip), vehicle: saline) was 130 % of control, the T/C (T/C endpoint: mean survival time, dose: 90.0 mg/kg/injection, schedule: Q01DX Z (ip), vehicle: saline) was 137 % of control and the T/C (T/C endpoint: mean survival time, dose: 90.0 mg/kg/injection, schedule: Q01DX Z (sc), vehicle: saline) was 112, 113, 118, 129 % of control. The T/C (T/C endpoint: mean survival time, dose: 99.6 mg/kg/injection, schedule: Q01DX Z (ip), vehicle: water) was 133 % of control, the T/C (T/C endpoint: mean survival time, dose: 100.0 mg/kg/injection, schedule: Q01DX Z (ip), vehicle: water) was 128 % of control and the T/C (T/C endpoint: mean survival time, dose: 120.0 mg/kg/injection, schedule: Q03DX004 (ip), vehicle: saline) was 147 % of control. The T/C (T/C endpoint: mean survival time, dose: 120.0 mg/kg/injection, schedule: Q03DX005 (ip), vehicle: saline) was 137 % of control, the T/C (T/C endpoint: mean survival time, dose: 120.0 mg/kg/injection, schedule: Q03DX 5 (iv), vehicle: saline) was 132 % of control and the T/C (T/C endpoint: mean survival time, dose: 120.0 mg/kg/injection, schedule: Q03DX Z (ip), vehicle: saline) was 140 % of control. For the same compound, the T/C (T/C endpoint: mean survival time, dose: 120.0 mg/kg/injection, schedule: Q07DX001 (ip), vehicle: saline) was 131 % of control, the T/C [1] was 94, 119, 137 % of control and the survivor count [1] was 0 of 6. For the same compound, the T/C (T/C endpoint: mean survival time, dose: 180.0 mg/kg/injection, schedule: Q01DX001 (ip), vehicle: saline) was 135 % of control, the T/C (T/C endpoint: mean survival time, dose: 180.0 mg/kg/injection, schedule: Q03DX004 (ip), vehicle: saline) was 147 % of control and the T/C (T/C endpoint: mean survival time, dose: 180.0 mg/kg/injection, schedule: Q03DX 5 (iv), vehicle: saline) was 125 % of control. For the same compound, the T/C (T/C endpoint: mean survival time, dose: 200.0 mg/kg/injection, schedule: Q01DX009 (ip), vehicle: saline) was 136 % of control, the survivor count (T/C endpoint: mean survival time, dose: 200.0 mg/kg/injection, schedule: Q01DX Z (ip), vehicle: saline) was 5 of 6 and 6 of 6 and the survivor count (T/C endpoint: mean survival time, dose: 200.0 mg/kg/injection, schedule: Q01DX Z (ip), vehicle: water) was 3 of 7. The survivor count (T/C endpoint: mean survival time, dose: 202.0 mg/kg/injection, schedule: Q01DX Z (iv), vehicle: saline) was 4 of 6, the survivor count (T/C endpoint: mean survival time, dose: 202.0 mg/kg/injection, schedule: Q01DX Z (sc), vehicle: saline) was 4 of 6 and the T/C (T/C endpoint: mean survival time, dose: 270.0 mg/kg/injection, schedule: Q01DX001 (ip), vehicle: saline) was 125 and 126 % of control. For the same compound, the survivor count (T/C endpoint: mean survival time, dose: 270.0 mg/kg/injection, schedule: Q03DX Z (ip), vehicle: saline) was 0 of 6, the T/C (T/C endpoint: mean survival time, dose: 280.0 mg/kg/injection, schedule: Q07DX Z (ip), vehicle: saline) was 135 % of control and the survivor count (T/C endpoint: mean survival time, dose: 300.0 mg/kg/injection, schedule: Q01DX Z (ip), vehicle: saline) was 3 of 6. For the same compound, the survivor count (T/C endpoint: mean survival time, dose: 360.0 mg/kg/injection, schedule: Q01DX Z (oral), vehicle: saline) was 3 of 6, the survivor count (T/C endpoint: mean survival time, dose: 400.0 mg/kg/injection, schedule: Q01DX Z (im), vehicle: saline) was 2 of 6 and the survivor count (T/C endpoint: mean survival time, dose: 405.0 mg/kg/injection, schedule: Q01DX 1 (iv), vehicle: saline) was 2 of 6. The survivor count (T/C endpoint: mean survival time, dose: 405.0 mg/kg/injection, schedule: Q03DX Z (ip), vehicle: saline) was 0 of 6, the survivor count (T/C endpoint: mean survival time, dose: 450.0 mg/kg/injection, schedule: Q01DX Z (ip), vehicle: saline) was 0 of 6 and the survivor count (T/C endpoint: mean survival time, dose: 610.0 mg/kg/injection, schedule: Q01DX001 (ip), vehicle: saline) was 1 of 6. The survivor count (T/C endpoint: mean survival time, dose: 630.0 mg/kg/injection, schedule: Q07DX Z (ip), vehicle: saline) was 0 of 6, the survivor count (T/C endpoint: mean survival time, dose: 800.0 mg/kg/injection, schedule: Q01DX Z (im), vehicle: saline) was 1 of 6 and the survivor count (T/C endpoint: mean survival time, dose: 915.0 mg/kg/injection, schedule: Q01DX001 (ip), vehicle: saline) was 0 of 6. For the same compound, the survivor count (T/C endpoint: mean survival time, dose: 945.0 mg/kg/injection, schedule: Q07DX Z (ip), vehicle: saline) was 1 of 6, the T/C (T/C endpoint: median survival time, dose: 100.0 mg/kg/injection, schedule: Q01DX017 (ip), vehicle: water) was 133 % of control and the survivor count (T/C endpoint: median survival time, dose: 200.0 mg/kg/injection, schedule: Q01DX017 (ip), vehicle: water) was 7 of 8.

With `CN(CCCl)Cc1ccc(-c2c3ccccc3cc3c2ccc2ccccc23)cc1` the survivor count (T/C endpoint: mean survival time, dose: 100.0 mg/kg/injection, schedule: Q01DX001 (ip), vehicle: carboxymethylcellulose (CMC)) was 1 of 4, the survivor count (T/C endpoint: mean survival time, dose: 200.0 mg/kg/injection, schedule: Q01DX001 (ip), vehicle: carboxymethylcellulose (CMC)) was 0 of 4 and the survivor count (T/C endpoint: mean survival time, dose: 400.0 mg/kg/injection, schedule: Q01DX001 (ip), vehicle: carboxymethylcellulose (CMC)) was 2 of 4.

`CCCCN=C(N)N=C(N)N` was tested, and the survivor count (T/C endpoint: mean survival time, dose: 200.0 mg/kg/injection, schedule: Q01DX001 (ip), vehicle: saline) was 0 of 6 and the survivor count (T/C endpoint: mean survival time, dose: 400.0 mg/kg/injection, schedule: Q01DX001 (ip), vehicle: saline) was 0 of 6.
